Primary screen of a compound library

Each number is a percent effect as filed.
The record does not define 0% and 100%; most values in the screen are far below 50% and negative numbers occur (in some assays of this library far below -100).
The compounds are a random part of those screened.
Two or more numbers in one place are separate tests of the same structure; such repeats can differ widely.

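Viability assay of Plasmodium falciparum sporozoites; the read-out is not stated. The concentration is filed as 10 mM, unlikely as a test dose, so the dose is not known. Direction is inferred from retests: higher values go with lower viability. Strong results were mostly tested again. Of about 34,000 compounds tested this way, about 280 (0.84%) reached 50% or more in at least one test.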

For COCCC(=O)N1CCc2nc(N3CCOCC3)nc(NC(C)C)c2C1 the result was 7.205%.
For CCc1nc2n(n1)CC(NCC(=O)Nc1cc(C)nn1C)CC2 (centres undefined) the result was 6.818%.
For O=C(NC(CO)CO)c1coc(COc2cccc(F)c2)n1 the result was -10.61%.
For CCC(C)(CNC(=O)Nc1nccs1)N1CCOCC1 (centres undefined) the result was -29.87% and -20.44%.
For Cc1cnn(CC2CN(Cc3nc(-c4ccoc4)no3)CCO2)c1 (centres undefined) the result was 12%.
For CN(Cc1ccccc1)C(=O)c1nc(S(C)(=O)=O)n2ccccc12 the result was 4.026%.
For Cn1ccnc1CN1CCC2(CC1)Cc1ccccc1CNC2=O.O=C(O)C(F)(F)F the result was -6.412%.
For CCCC(=O)Nc1sc(C(=O)OCC)c(C)c1C#N the result was -0.3352%.
For NC(=O)C1(Cc2ccc(-c3ccccc3)cc2)CCCNC1 (centres undefined) the result was -6.869%.
For Cc1cccc(OCCC(=O)N(C)CCNS(C)(=O)=O)c1C the result was -1.917%.
For Fc1ccccc1Oc1nccnc1C1CCCN(C2CCOCC2)C1 (centres undefined) the result was -3.358%.
For Cc1cc(C2CCCN2CCC(=O)N2CCc3sccc3C2)no1 (centres undefined) the result was 6.954%.
For CC(O)CN1CCC(CNCc2ccc(OC(F)(F)F)cc2)CC1 (centres undefined) the result was 10.71%.
For CN(C)CC1CN(Cc2cccc(C(=O)N(C)C)c2)CCO1 (centres undefined) the result was -12.43%.
For O=C(c1cccc2c1OCO2)N1CCCC1c1noc(C2CC2)n1 (centres undefined) the result was -3.536%.
For CN(Cc1ccc(C(=O)O)cc1)C(=O)c1sccc1OC(F)F the result was 18.73%.
For [H][C@]12CC[C@]([H])(CN(C(=O)c3ccccn3)C1)N(C(=O)Cc1cccs1)C2 the result was -2.193%.
For CCOCC(O)CN1CCN(C(=O)c2ccccc2F)CC1 (centres undefined) the result was -3.307%.
For COCCN1CCC(NCc2cccc(C)c2)C1 (centres undefined) the result was 9.103%.
For Cc1csc(C(C)(C)NCc2ncc(-c3ccccc3)o2)n1 the result was -10.88%.
For CC1CN(C)CCN1C(=O)c1ccn(-c2ccccc2Cl)n1 (centres undefined) the result was 26.28%.
For CN(C)CCNC(=O)c1ccc(OC2CCN(S(C)(=O)=O)CC2)c(Cl)c1 the result was -5.536%.
For CSCCC(NC(=O)c1nc(SC)ncc1Cl)C(=O)O (centres undefined) the result was 5.646%.
For COCCc1noc(CN2CCN(c3ccc(OC)cc3)C(=O)C2C)n1 (centres undefined) the result was 0.7162%.
For [H][C@@]12COC[C@]1(C(=O)NCc1cccs1)CN(Cc1cnn(C)c1)C2 the result was -0.08772%.
For O=C(NCCn1nc2ccccn2c1=O)c1cc(C2CC2)[nH]n1 the result was 10.33%.
For COc1ccc(C(O)CNC(=O)NCc2nc(C)cs2)cc1 (centres undefined) the result was 6.754%.
For O=C(CN1CCc2c(ncn2C2CC2)C1)NC1CC1 the result was -26.01%.
For CC(c1ccccc1Cl)N(C)Cc1nc2c(cnn2C)c(=O)[nH]1 (centres undefined) the result was -1.698%.
For Cc1ccc([C@H]2CN(C(=O)C3CCC3)C[C@@H]2N)o1 the result was 2.105%.
For CC(=O)N1CCCN(C(=O)CCc2c(C)noc2C)CC1 the result was 7.42%.
For OCCN1CCCCC1c1cc[nH]n1 (centres undefined) the result was -9.491%.
For COCCCN1CCCN(C(C)C(=O)Nc2ccnn2C(C)C)CC1 (centres undefined) the result was -4.51%.
For c1coc(-c2noc(CN3CCCC3Cn3cncn3)n2)c1 (centres undefined) the result was -230.6% and 14.23% and -248.6%.

For reference, 2 entries once more:

structure	effect
Cc1csc(C(C)(C)NCc2ncc(-c3ccccc3)o2)n1	-10.88%
CCOCC(O)CN1CCN(C(=O)c2ccccc2F)CC1 (centres undefined)	-3.307%

Measurements from “University of Dundee, Small-Polar-MMV Screening Library” (2021), ChEMBL document CHEMBL3988442.